Consider one substance from paper PMC9582336.

These are yes or no findings as the source states them, for the method shown. In cells and extracts the contact can be indirect. A result given as binding can be weak or reduced; the word gives no strength. Sequences can lack the tags named with a protein.

The target in the test is T1, CFP-tagged wild type (WT) inhibitor-2 (I-2) (UniProt P41236).
T1 sequence: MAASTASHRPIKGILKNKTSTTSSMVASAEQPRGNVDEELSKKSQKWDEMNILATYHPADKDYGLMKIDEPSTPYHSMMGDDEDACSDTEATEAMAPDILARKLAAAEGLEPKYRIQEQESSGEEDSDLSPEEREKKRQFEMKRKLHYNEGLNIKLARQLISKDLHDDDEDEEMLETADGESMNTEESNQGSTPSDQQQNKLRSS
The test is described as follows: FRET or BRET; FLIM-FRET in living HEK293 cells 2 days after co-transfection; lifetime of the CFP donor measured by two-photon excitation (850 nm) and time-correlated single photon counting, double exponential fit; a shorter CFP lifetime with a YFP-tagged partner is read as FRET; in one panel rLuc-I-2 was co-expressed as a third protein.

For the substance YFP-PP1γ (enzyme), the binding result was “binds”.
